No constants are given. Whether binding was seen depends on the method and setting. For part of these data: Binding seen in cells or lysates may run through a third protein. Some binding calls cover weakened binding; strength is not graded here. For part of these data: Sequences can lack the tags named with a protein.
T1: GFP-SNX17 (wild type, N-terminal GFP) (UniProt Q15036)
T1 sequence: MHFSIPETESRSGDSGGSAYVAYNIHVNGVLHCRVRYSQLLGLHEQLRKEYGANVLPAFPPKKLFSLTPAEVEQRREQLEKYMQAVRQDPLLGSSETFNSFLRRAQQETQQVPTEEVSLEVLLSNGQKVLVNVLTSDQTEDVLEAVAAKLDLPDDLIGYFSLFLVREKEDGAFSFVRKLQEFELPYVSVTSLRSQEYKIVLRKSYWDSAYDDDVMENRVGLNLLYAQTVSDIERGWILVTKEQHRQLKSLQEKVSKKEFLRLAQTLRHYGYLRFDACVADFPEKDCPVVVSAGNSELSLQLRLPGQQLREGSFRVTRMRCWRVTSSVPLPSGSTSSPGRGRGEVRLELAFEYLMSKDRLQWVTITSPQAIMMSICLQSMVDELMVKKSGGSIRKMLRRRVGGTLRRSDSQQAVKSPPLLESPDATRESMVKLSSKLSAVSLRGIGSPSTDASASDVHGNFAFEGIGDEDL


Legend:
GFP-VPS26C = GFP-VPS26C (UniProt O14972); assay: co-IP
[1] = target: T1, GFP-SNX17 (wild type, N-terminal GFP); assay: co-IP
[2] = target: full-length VPS26C (recombinant) (UniProt O14972); assay: ITC

Molecule | binding (GFP-VPS26C) | binding [1] | binding [2]
endogenous PDLIM7 (from UniProt Q9NR12 1-457) | no binding | binds | –
HGNFAFEGIGDEDL [SNX17 C-terminal peptide (457-470) used for ITC] | – | – | no binding

From doi:10.1101/2021.07.29.454387 (bioRxiv, 2021)
